Data on one substance can be found in US6180679 (dated 2001).

A short description of this data set: general procedure: solution-phase peptide synthesis; pentafluorophenyl diphenylphosphinate/DIPEA (macrolactamisation); DCC/DMAP (este). Conditions: late stage modification step.

For the substance Cryptophycin 55, the step yield was found to be 48%.
